Measurements as given in patent US9598391B2, “Substituted chroman compounds as calcium sensing receptor modulators” (LUPIN LIMITED, priority 2012, dated 2017).
Some entries share one result that the patent states for a list of compounds.

Tested on: CKD Wistar rats
Assay: In-vivo activity in CKD Wistar rats (plasma PTH suppression)
Details: CKD Wistar rats (0.75% adenine diet, 28 days); 1 mg/kg oral dose; relative to individual basal untreated values

| SMILES | Percentage suppression of plasma PTH |
| --- | --- |
| Cc1ccc([C@@H]2C[C@H](CN[C@H](C)c3cccc4ccccc34)Oc3ccccc32)c(C)c1C(=O)O.Cl [Example 67, 2,6-Dimethyl-3-((2R,4S)-2-((((R)-1-(naphthalen-1-yl)ethyl)amino)methyl)chroman-4-yl)benzoic acid hydrochloride] | greater than 80% |
| Cc1ccc([C@@H]2C[C@H](CN[C@H](C)c3cccc4ccccc34)Oc3ccccc32)cc1C(=O)O.Cl [Example 84b, 2-Methyl-5-((2R,4S)-2-((((R)-1-(naphthalen-1-yl)ethyl)amino)methyl)chroman-4-yl)benzoic acid hydrochloride] | greater than 80% |
| COc1c(C(=O)O)cccc1[C@@H]1C[C@H](CN[C@H](C)c2cccc3ccccc23)Oc2ccccc21.Cl [Example 89b, 2-Methoxy-3-((2R,4R)-2-((((R)-1-(naphthalen-1-yl)ethyl)amino)methyl)chroman-4-yl)benzoic acid hydrochloride] | greater than 80% |
| Cc1ccc([C@@H]2C[C@H](CN[C@H](C)c3ccc(F)c4ccccc34)Oc3ccccc32)cc1C(=O)O.Cl [Example 119b, 5-((2R,4S)-2-((((R)-1-(4-Fluoronaphthalen-1-yl)ethyl)amino)methyl)chroman-4-yl)-2-methyl benzoic acid hydrochloride] | greater than 80% |
| Cc1ccc([C@@H]2C[C@H](CCN[C@H](C)c3cccc4ccccc34)Oc3ccccc32)cc1C(=O)O.Cl [Example 124, 2-Methyl-5-((2R,4S)-2-(2-(((R)-1-(naphthalen-1-yl)ethyl)amino)ethyl)chroman-4-yl)benzoic acid hydrochloride] | greater than 80% |
